Results as given in patent publication US11021442B2, “Process for the preparation of freeze-dried 2-[(3-aminopropyl)amino] ethanethiol formulation” (CLEVEXEL PHARMA, priority 2016, dated 2021).
Some results were stated once for a whole list of compounds, not compound by compound.

Tested on: radiation-induced oral mucositis
Experiment: Third efficacy study, radiation-induced oral mucositis, four fractions of 8 Gy (Example F-6)
Type: in vivo, mice
Settings: 2 mg amifostine per mouse before each fraction
Description: Four fractions of 8 Gy were delivered for four consecutive days (everyday from day 0 to day 3; day 0 corresponding to the first day of treatment) to the snout. The fractionation scheme of four fractions of 8 Gy was chosen, because it is biologically equivalent to 1 fraction of 18 Gy (Biologically Effective Dose: BED 120 Gy). […] Thus, the compound was applied 4 times for four consecutive days. For each day, a similar experimental procedure as for in example F-2 was used. […] The same experimental procedure was repeated for 4 consecutive days.

NCCCNCCSP(=O)(O)O [Amifostine IV, Amifostine]
day by which mice recovered from the mucositis: ≤ 30 days
